The results in this text go back to article PMC2374977.

The chains behind the UniProt entries cited, without tags or fusion partners.
UniProt Q92731: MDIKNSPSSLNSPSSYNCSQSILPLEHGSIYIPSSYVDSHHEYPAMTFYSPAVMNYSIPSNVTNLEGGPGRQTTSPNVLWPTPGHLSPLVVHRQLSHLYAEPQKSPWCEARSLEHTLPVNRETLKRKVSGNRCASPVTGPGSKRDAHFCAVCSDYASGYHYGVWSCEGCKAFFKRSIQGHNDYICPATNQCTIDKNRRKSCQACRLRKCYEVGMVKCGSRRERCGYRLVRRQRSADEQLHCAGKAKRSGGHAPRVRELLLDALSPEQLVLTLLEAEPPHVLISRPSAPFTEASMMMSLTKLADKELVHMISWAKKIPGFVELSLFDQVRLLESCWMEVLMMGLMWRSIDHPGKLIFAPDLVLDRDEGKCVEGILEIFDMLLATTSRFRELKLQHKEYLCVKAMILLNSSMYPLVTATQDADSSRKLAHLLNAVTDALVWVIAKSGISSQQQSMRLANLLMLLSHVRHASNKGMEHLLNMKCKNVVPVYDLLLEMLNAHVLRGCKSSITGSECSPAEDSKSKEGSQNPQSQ
UniProt P03372: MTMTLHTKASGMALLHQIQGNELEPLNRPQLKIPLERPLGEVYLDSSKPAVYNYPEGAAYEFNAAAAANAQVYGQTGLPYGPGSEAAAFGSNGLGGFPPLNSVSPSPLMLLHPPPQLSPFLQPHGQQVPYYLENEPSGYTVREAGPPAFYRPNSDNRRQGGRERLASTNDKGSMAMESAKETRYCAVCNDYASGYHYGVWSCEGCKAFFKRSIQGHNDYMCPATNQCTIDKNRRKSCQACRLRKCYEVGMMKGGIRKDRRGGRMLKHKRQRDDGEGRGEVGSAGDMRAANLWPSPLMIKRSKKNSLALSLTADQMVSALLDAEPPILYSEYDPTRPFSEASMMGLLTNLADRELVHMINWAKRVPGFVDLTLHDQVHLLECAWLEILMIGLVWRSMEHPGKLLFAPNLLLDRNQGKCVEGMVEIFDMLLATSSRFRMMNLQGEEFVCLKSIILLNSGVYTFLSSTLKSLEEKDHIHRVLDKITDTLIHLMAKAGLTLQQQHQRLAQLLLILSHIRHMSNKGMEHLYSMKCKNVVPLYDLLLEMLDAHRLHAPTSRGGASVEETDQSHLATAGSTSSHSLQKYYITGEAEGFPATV

These are yes or no findings as the source states them, for the method shown. For some of these results: In cells and extracts the contact can be indirect. Some binding calls cover weakened binding; strength is not graded here. For some of these results: Tags and fused reporters may be left off the sequences shown.

In experiment [1] the target is GST-FOXO3a amino-terminal domain (amino acids 1 to 300) (UniProt O43524). The experiment is described as follows: pull-down; GST pull-down in vitro: whole cell lysates from 293T cells incubated with GST-FOXO3a fusion proteins; IB with an antibody against ER-α or ER-β; only the target purified.
Experiment [2] concerns the target T1, GST-FOXO3a carboxyl-terminal domain (amino acids 301 to 673) (UniProt O43524).
T1 sequence: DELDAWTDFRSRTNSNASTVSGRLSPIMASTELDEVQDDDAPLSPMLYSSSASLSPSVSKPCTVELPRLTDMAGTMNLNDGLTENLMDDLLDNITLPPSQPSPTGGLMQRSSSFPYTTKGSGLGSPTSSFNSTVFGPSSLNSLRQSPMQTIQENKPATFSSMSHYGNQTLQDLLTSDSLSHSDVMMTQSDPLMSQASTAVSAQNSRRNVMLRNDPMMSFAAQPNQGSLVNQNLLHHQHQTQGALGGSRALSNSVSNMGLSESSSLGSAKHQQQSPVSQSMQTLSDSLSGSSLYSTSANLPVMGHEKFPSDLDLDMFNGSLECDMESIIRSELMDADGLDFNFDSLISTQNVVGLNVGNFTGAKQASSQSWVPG
The experiment is described as above.

The next experiment addresses HA-ER-β (UniProt Q92731). As to the kind of experiment: co-IP; total lysates of co-transfected 293T cells, in the presence of E2; IP with anti-HA or anti-Flag, IB with the other tag's antibody, reciprocal IP done; 4°C overnight, protein A or G sepharose.
The target of experiment [3] is Flag-estrogen receptor (ER)-α (UniProt P03372). Described as above.
For experiment [4], the target named is endogenous estrogen receptor (ER)-β of MCF-7 cells (human (endogenous in MCF-7)) (UniProt Q92731). The experiment is described as follows: co-IP; endogenous proteins, total lysates of MCF-7 cells with E2; IP with anti-FOXO3a, anti-ER-α or anti-ER-β, reciprocal IB.
Experiment [5] has as its target endogenous estrogen receptor (ER)-α of MCF-7 cells (human (endogenous in MCF-7)) (UniProt P03372). Described as above.
The target is the same in experiment [6]. As to the kind of experiment: antibody array; Hypromatrix AntibodyArray incubated with whole-cell lysates of MCF7-FO33 cells, then horseradish peroxidase-conjugated anti-HA monoclonal antibody; positive spot at the immobilised antibody against ER-α.

“ER-α in whole cell lysates from 293T cells (GST pull-down) (from UniProt P03372 1-595) (receptor)”: the binding result in experiment [1] was “binds”.
Take “ER-β in whole cell lysates from 293T cells (GST pull-down) (from UniProt Q92731 1-530) (receptor)”: the binding result in experiment [2] is listed as “binds”.
With Flag-FOXO3a (from UniProt O43524 1-673), in the experiment with HA-ER-β, the binding result was “binds”.
With “HA-tagged FOXO3a, transiently expressed in 293T (from UniProt O43524 1-673)”, the binding entry in experiment [3] is on record as “binds”.
With “endogenous FOXO3a of MCF-7 cells (from UniProt O43524 1-673)”, the binding entry in experiment [4] and in experiment [5] was “binds” throughout.
With “hemagglutinin (HA)-tagged FOXO3a, stably expressed in MCF-7 (MCF7-FO33) (from UniProt O43524 1-673)”, the binding result in experiment [6] was “binds”.
